Results taken from publication PMC4383706 (Cancer prevention research (Philadelphia, Pa.), 2015).
Values joined by “and” are separate entries in the source; they are usually repeats but may differ in a detail not shown here. Equal entries are not always repeated. Where two headings read alike, the source gives them in different places.

Tests used:
[1] = NPX 40 mg/Kg BW gavage, serum
[2] = in vivo; settings: female, Fischer-344, rat, serum, po, 40 mg/kg

AUC ([1]; 14 Day (14 consecutive days)): 847,418 hrxng/ml
AUC ([1]; 24 hour (1 day) time point): 686,277 hrxng/ml
Vd ([1]; 24 hour (1 day) time point): 0.255 L/kg
Cmax [2]: ~300 µM and 71300 ng/mL
Cmax at 14 days [2]: 66.6 µg/mL
Tmax [2]: 2 h
Tmax at 14 days [2]: 2 h
SMILES: COc1ccc2cc([C@H](C)C(=O)O)ccc2c1 [NPX, naproxen]
